Measurements from PMC4154131, “Molecular pathogenesis of Spondylocheirodysplastic Ehlers-Danlos syndrome caused by mutant ZIP13 proteins” (EMBO Molecular Medicine, 2014).

Biological target: T1, N-terminally 3xFLAG-tagged wild-type ZIP13 (human) (UniProt Q96H72)
T1 sequence: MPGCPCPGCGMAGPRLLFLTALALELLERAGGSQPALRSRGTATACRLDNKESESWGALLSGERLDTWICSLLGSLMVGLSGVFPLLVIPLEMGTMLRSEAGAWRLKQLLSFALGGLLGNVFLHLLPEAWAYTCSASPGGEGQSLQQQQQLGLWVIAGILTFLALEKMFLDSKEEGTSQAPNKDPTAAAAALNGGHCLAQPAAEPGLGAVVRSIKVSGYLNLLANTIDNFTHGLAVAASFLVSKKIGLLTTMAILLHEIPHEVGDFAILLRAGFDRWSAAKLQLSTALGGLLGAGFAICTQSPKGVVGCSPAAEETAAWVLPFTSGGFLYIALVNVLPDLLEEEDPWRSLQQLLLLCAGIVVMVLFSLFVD
Experiment: affinity purification with mass spectrometry; lysates of 293T cells transfected with FLAG-tagged ZIP13, immunoprecipitated with anti-FLAG antibody; SDS-PAGE, silver staining, unique bands cut out and analysed by TOF/MASS

binding: binds
Substance: valosin-containing protein (VCP) (from UniProt P55072 1-806)

Results are given in words; binding and its absence hold for the method and conditions named. In cells and extracts the contact can be indirect. A yes stands for co-enrichment or nearness to the bait. Other partners may have been found. Where a sequence is shown, tags or fusion partners need not be part of it.
